Results as given in PubChem BioAssay AID1439 (NMMLSC, 2008).
In all, about 220,000 compounds went through this assay and about 770 (0.35%) were called active. The inconclusive results got no clear call from the source; some entries with a clear call stand among them for comparison. Cut-off read from the data, not from the text of the source: active = binding response below about 49% or above about 150%; inconclusive = no clear call, values can overlap the other calls; inactive = in between.

Protein sequences, listed by entry. Tags and fused reporters are not part of them.
UniProt P09471, whole entry, looked up: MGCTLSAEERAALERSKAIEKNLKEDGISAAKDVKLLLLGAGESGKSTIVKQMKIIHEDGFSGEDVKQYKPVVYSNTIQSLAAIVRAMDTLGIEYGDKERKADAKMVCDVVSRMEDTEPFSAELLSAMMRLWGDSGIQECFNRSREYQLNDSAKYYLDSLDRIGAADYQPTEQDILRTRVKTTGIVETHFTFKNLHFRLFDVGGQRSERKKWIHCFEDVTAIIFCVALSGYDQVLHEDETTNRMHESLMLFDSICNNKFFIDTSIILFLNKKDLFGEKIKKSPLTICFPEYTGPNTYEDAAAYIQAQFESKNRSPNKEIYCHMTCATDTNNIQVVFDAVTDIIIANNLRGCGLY

biological target: Guanine nucleotide-binding protein G(o) subunit alpha (Homo sapiens) (UniProt P09471); test: RGS7-Galphao binding modulators, primary screen, biochemical, multiplexed bead flow cytometry (AID 1439); conditions: at 10 µM, actives lie on both sides;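 note: fluorescent Galphao held in activated GDP-AlF4 state binding bead-coupled RGS7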

Structure (SMILES)	binding response (% of control)
CC(C)(C)c1ccc(C(=O)CC(=O)c2cc(Cl)ccc2O)cc1	inactive: 103%
CCn1cnc2c1c(=O)n(CC(=O)NCC(F)(F)F)c(=O)n2Cc1ccccc1	inconclusive: 89.9%
CN(C)c1cccc2cccc(N(C)C)c12	inconclusive: 90.7%
COc1ccc(CC2(C)OC(c3ccc(C)c([N+](=O)[O-])c3)=NN2C(C)=O)cc1 (stereo not drawn)	inconclusive: -13.4%
O=C(NC1CCS(=O)(=O)C1)c1cc(-c2ccccc2)nc2ccccc12 (stereo not drawn)	inconclusive: 101%
CCC(CC)NC(=O)c1ccc2nc[nH]c2c1	inactive: 96.2%
CC1CCC2(CC1)NC(=O)N(CC(=O)NCc1ccc3c(c1)OCO3)C2=O (stereo not drawn)	inconclusive: 133%
Cc1ccc(CSc2nnc3ccc(-c4ccncc4)nn23)cc1	inconclusive: 101%
Cc1nc(NC(=O)c2ccccc2)sc1C1(C)CC(c2ccccc2F)=NO1 (stereo not drawn)	inconclusive: 127%
CCOc1ccccc1/C=C(\C#N)C(=O)Nc1cccc(C(=O)O)c1	inconclusive: 102%
CCN=C1SC(CC(=O)NCC)C(=O)N1CC (stereo not drawn)	active: 213% [activator]
Cc1cccn2c(CNCC(C)Oc3cccnc3)c(C(=O)N3CCOCC3)nc12 (stereo not drawn)	inconclusive: 97.2%
CC1CCCN(c2ccc(C(=O)Nc3cccnc3)cc2[N+](=O)[O-])C1 (stereo not drawn)	inconclusive: 99.3%
O=C(CSC1=NCCN1)Nc1ccccc1[N+](=O)[O-]	inconclusive: 131%
COc1ccc2c(C)c(Cc3ccccc3)c(=O)oc2c1OC	inconclusive: 115%
O=C(Nc1ccccc1Cl)c1ccc(-c2ccccn2)s1	inconclusive: 109%
Cc1cc(C)cc(C(=O)NN2CCN(C)CC2)c1	inactive: 104%
CC1=NOC(=O)/C1=C\c1ccccc1	inconclusive: 98.3%
Cc1ccc(S(=O)(=O)Nc2nonc2C)cc1	active: 31.3%
CCOc1ccccc1NC(=O)c1cc(S(=O)(=O)N2CCC3(CC2)OCCO3)ccc1F	active: 15.2%

Gathered by group, the entries above containing a nitro group on carbon
Structure (SMILES)	binding response (% of control)
COc1ccc(CC2(C)OC(c3ccc(C)c([N+](=O)[O-])c3)=NN2C(C)=O)cc1 (stereo not drawn)	inconclusive: -13.4%
CC1CCCN(c2ccc(C(=O)Nc3cccnc3)cc2[N+](=O)[O-])C1 (stereo not drawn)	inconclusive: 99.3%
O=C(CSC1=NCCN1)Nc1ccccc1[N+](=O)[O-]	inconclusive: 131%

Further compounds follow.

Structure (SMILES)	binding response (% of control)
Cn1c(SCCCC(=O)c2ccc(F)cc2)nnc1-c1ccncc1	inactive: 102%
CCOC(=O)c1sc(NC(=O)CSc2nc(C)cc(C)n2)c(C#N)c1C	inactive: 108%
NC(=O)C1CCN(C(=O)/C=C/c2cccc(Br)c2)CC1	inconclusive: 67.7%
O=C(CC1C(=O)NCCN1C(=O)Nc1ccccc1)Nc1ccc(F)cc1 (stereo not drawn)	inconclusive: 174%
O=C(CN1C2CCCC1CC(NC(=O)C1CCCCC1)C2)NCc1ccc(F)cc1 (stereo not drawn)	inconclusive: 30.1%
CN(c1ccc(OCC(=O)OCC(=O)NCc2ccco2)cc1)S(=O)(=O)c1ccc2ccccc2c1	inconclusive: 97.8%
COc1cccc(C(=O)Nc2cccc(C(=O)NC3=NN(c4c(Cl)cc(Cl)cc4Cl)C(=O)C3)c2)c1	inactive: 97.8%
OCCCNCc1ccc(-c2ccccc2)cc1	inconclusive: 68.8%
Cc1cccc(OCC(=O)O/N=C(\N)c2ccc(Br)cc2)c1	inconclusive: 109%
O=C(Nc1nc2ccccc2s1)Nc1ccc([N+](=O)[O-])cc1Cl	inconclusive: 91.7%
Cc1ccc(C#CC(C)(O)C(C)(C)C)cn1 (stereo not drawn)	inconclusive: 121%
O=C1OCC(CO)(CO)N=C1NNc1ccccc1Cl	inactive: 98.7%
C/C(=N\NC(=O)CCc1ccccc1)c1ccc(Br)cc1	inconclusive: 64.8%
O=C(Cc1ccc(F)cc1)N/N=C/c1ccc2c(c1)OCO2	inconclusive: 78%
CCn1c(C)nc2cc(C(=O)NNC(=S)Nc3ccc(C)cc3)ccc21	inconclusive: 97.2%
CC(=O)Nc1nc(CC(C)C)cc(-c2ccccc2)c1C#N	inconclusive: 92.9%
O=C(CSc1nnc2sc3ccccc3n12)NCc1ccc2c(c1)OCO2	inconclusive: 59.2%
Cn1cc([N+](=O)[O-])c(C(=O)n2cccn2)n1	inconclusive: 24.9%
COCCNC(=O)C(c1cccnc1)N(Cc1ccc(C)cc1)C(=O)Cn1nnc2ccccc21 (stereo not drawn)	inactive: 99.5%
COc1ccc(C(=O)N(C)C2CCN(C)CC2)cc1S(=O)(=O)Nc1cc(Cl)ccc1Cl	inconclusive: 113%

Structure (SMILES)	binding response (% of control)
CC1(OC(=O)CCc2ccccc2)C(=O)C=C2C=C3CCCN3C=C2C1=O (stereo not drawn)	inconclusive: 92%
CCN(CC)c1ccc(-c2n[nH]c(=S)n2-c2ccccc2C)cc1	inconclusive: 91.3%
C=CCN1C(=O)c2ccc(C(=O)OCC(=O)N(C)C3CCCCC3)cc2C1=O	inconclusive: 106%
Cc1cc(C)cc(N2C(=O)CC(Sc3ccccc3C(=O)O)C2=O)c1 (stereo not drawn)	inconclusive: 105%
O=[N+]([O-])c1cccc(S(=O)(=O)NCCc2cn3ccccc3n2)c1	inconclusive: 101%
COc1ccccc1C1(CCNC(C)c2cccs2)CCOC(C(C)C)C1 (stereo not drawn)	inconclusive: 97.8%
Cc1ccc(-n2c(C)c([N+](=O)[O-])c3ccc(O)c(CN(C)C)c32)cc1	inactive: 105%
O=C(COC(=O)c1ccccc1Oc1ccccc1)NC1CC1	inactive: 103%
CCCCc1c(O)nc(SCC(=O)c2ccccc2)n(-c2ccccc2)c1=O	inconclusive: 46.7%
Nc1c(Cl)ncnc1N/N=C/c1cccc(O)c1	inconclusive: 109%
Cn1nnc(NC(=S)NC(=O)/C=C/c2ccco2)n1	inconclusive: 104%
CC(C)(C)c1csc(NNC(=O)c2ccc(Cl)cc2)n1	inconclusive: 134%
Cc1ccc(NC(=O)CSc2nnc(-c3cccs3)o2)cc1S(=O)(=O)N1CCCCC1	inactive: 94.7%
C/C(Cc1ccccc1)=N\NC(=O)CNC(=O)c1ccc2c(c1)OCCO2	inconclusive: 91.6%
O=C(CN1C(=O)C2CCCCC2C1=O)OCC(=O)c1ccc(Cl)s1 (stereo not drawn)	inactive: 108%
COc1cccc(OCC(O)CN2CCN(c3ccccc3)CC2)c1 (stereo not drawn)	inconclusive: 120%
Cc1ccc(-n2c(SCC(=O)N3CCCCC3)nc(O)cc2=O)cc1	inconclusive: 103%
CC(C)n1cnc2c(NCc3ccc(S(N)(=O)=O)cc3)nc(NCc3ccc(S(N)(=O)=O)cc3)nc21	inconclusive: 129%
